# Laboratory results as given in article PMC4342582.
# By UniProt entry, the sequences of proteins in these tests, tags left out.
# UniProt Q9NZI8: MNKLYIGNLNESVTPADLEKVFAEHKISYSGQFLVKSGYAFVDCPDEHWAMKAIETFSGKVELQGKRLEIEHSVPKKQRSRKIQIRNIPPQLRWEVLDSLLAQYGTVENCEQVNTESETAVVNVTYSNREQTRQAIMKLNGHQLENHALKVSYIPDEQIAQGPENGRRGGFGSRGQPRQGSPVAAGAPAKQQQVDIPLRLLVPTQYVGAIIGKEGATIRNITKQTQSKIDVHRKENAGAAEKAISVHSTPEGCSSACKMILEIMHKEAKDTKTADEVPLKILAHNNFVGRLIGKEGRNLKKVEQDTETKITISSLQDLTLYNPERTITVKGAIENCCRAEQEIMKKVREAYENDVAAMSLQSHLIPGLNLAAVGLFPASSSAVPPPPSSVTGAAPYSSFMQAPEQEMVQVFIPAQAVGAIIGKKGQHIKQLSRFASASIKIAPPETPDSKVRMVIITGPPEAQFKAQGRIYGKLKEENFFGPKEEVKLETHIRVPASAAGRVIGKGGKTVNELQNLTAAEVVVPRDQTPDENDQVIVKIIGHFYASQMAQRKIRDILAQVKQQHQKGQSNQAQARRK
# UniProt P52732: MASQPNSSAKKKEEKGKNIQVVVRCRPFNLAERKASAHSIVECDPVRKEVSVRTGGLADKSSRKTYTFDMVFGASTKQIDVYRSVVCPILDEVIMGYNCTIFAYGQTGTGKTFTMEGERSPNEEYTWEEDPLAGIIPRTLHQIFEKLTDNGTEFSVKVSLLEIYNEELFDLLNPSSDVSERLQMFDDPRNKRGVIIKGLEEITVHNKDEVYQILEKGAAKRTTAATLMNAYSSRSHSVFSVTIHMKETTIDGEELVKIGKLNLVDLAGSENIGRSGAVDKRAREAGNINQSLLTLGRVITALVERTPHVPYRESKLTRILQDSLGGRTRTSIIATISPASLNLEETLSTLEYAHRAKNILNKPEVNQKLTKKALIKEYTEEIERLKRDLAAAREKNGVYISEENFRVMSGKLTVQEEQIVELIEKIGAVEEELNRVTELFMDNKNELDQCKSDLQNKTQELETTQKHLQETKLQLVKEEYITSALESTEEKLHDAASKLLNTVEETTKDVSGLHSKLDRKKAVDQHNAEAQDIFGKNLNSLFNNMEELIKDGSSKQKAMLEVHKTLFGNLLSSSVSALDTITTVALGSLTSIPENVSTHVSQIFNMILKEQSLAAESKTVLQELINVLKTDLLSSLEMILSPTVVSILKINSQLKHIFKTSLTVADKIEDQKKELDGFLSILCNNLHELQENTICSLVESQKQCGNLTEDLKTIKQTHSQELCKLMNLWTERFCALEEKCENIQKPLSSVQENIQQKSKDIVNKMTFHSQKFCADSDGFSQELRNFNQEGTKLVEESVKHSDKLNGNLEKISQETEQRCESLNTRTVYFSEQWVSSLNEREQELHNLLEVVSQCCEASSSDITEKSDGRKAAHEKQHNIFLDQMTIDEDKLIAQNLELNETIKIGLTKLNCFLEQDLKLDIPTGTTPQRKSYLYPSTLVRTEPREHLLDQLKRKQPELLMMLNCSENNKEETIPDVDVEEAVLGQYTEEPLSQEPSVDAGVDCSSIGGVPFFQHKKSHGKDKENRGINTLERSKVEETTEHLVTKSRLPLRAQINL
# These are yes or no findings as the source states them, for the method shown. Binding seen in cells or lysates may run through a third protein. Here binding means that the protein was enriched with, or labelled near, the bait; the list need not be complete.
# Target: FLAG-GFP-tagged human ZBP1 (human) (UniProt Q9NZI8)
# Assay: affinity purification with mass spectrometry; anti-FLAG M2 agarose beads, extract of MDA231/FLAG-GFP-ZBP1 cells treated with RNase, 6 h at 4°C; lysis buffer 10 mM HEPES pH 7.8, 100 mM NaCl, 10 mM KCl, 0.5% NP-40; Coomassie band cut out, MALDI-TOF
substance,measurement,value
"KIF11, endogenous (from UniProt P52732 1-1056)",binding,binds
